Results deposited as PubChem BioAssay AID686943 (Drosophila RNAi Screening Center, 2013)
In all, the deposit lists about 23,000 reagents; below is an unselected part of those with a known target gene and a result. 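Extra replicates exist only for a retested subset of genes; insulin dose and duration not given; both raised and lowered dpERK matter.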 Names joined by + are all predicted targets of the reagent. Reagent sequences are not shown. Not stated in the record: the amount of reagent, the time to read-out.

Test: 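Search across the genome for regulators of signalling from receptor tyrosine kinase to ERK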 (primary screen)
System: Drosophila S2R+ haemocyte-like cells expressing YFP-tagged ERK (Rolled)
Knock-down reagent: long dsRNA against Drosophila genes
Challenge: insulin stimulation versus unstimulated cells; dose and duration not given
Measurement: 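Per-plate z-scores of phospho-ERK immunostaining normalised to YFP-tagged ERK, measured with and without insulin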
Scale: replicate 1, z-score of dpERK with insulin and replicate 2, z-score of dpERK with insulin: higher = more active ERK per ERK-YFP after insulin; replicate 1, z-score of dpERK under basal conditions: higher = more basal active ERK per ERK-YFP; replicate 1, z-score of ERK-YFP with insulin: higher = more YFP-tagged ERK signal

| gene | amplicon | replicate 1, z-score of dpERK with insulin | replicate 2, z-score of dpERK with insulin | replicate 1, z-score of dpERK under basal conditions | replicate 1, z-score of ERK-YFP with insulin |
| --- | --- | --- | --- | --- | --- |
| Npc2a | DRSC00698 | 0.22 | 0.42 | 0.37 | 0.28 |
| CG5819 | DRSC04520 | 1.01 | 0.51 | 0.35 | -0.64 |
| CG2006 + Spase12 | DRSC14316 | -0.37 | 0 | -0.34 | 0.01 |
| Mtk | DRSC07475 | 0.52 | 0.16 | 1.39 | 0.32 |
| CG42502 + CG10570 | DRSC02071 | -0.61 | -0.53 | 2.03 | -0.44 |
| Herc4 | DRSC08631 | -0.08 | 0.22 | -1.84 | -0.18 |
| Usp1 | DRSC14155 | -0.32 | -0.58 | -0.03 | 0.13 |
| CG5921 | DRSC17431 | 0.01 | -0.17 | 0.15 | 0.36 |
| CG5921 | DRSC18390 | -0.05 | 0 | 0.06 | 0.07 |
| Cdc27 | DRSC11112 | -3.25 | -4.9 | 2.67 | -4.57 |
| CG43331 | DRSC11671 | 0.68 | 0.12 | -0.26 | -0.41 |
| Megf8 | DRSC03058 | 0.41 | 0.48 | -0.51 | -0.69 |
| Lkb1 | DRSC16481 | -0.02 | 0.05 | 0.31 | 0.07 |
| kek5 | DRSC19438 | -0.23 | 0.12 | -0.03 | 0.73 |
| CG10600 | DRSC02074 | -0.32 | -2.07 | -0.68 | -0.27 |
| conv | DRSC07213 | 0.99 | 0.46 | 1.85 | -0.16 |
| CG18549 | DRSC15347 | -0.39 | -0.22 | 0.21 | 0.03 |
| Cpr12A | DRSC19722 | 1.03 | 0.27 | 0.11 | -0.01 |
| mms4 | DRSC06249 | 0.42 | 0.1 | -0.51 | 0.23 |
| CG15125 | DRSC06547 | -0.24 | 0.52 | -0.16 | -0.49 |
| CG31908 | DRSC21864 | 0.16 | 1.68 | -0.6 | -0.1 |
| CG14440 | DRSC17933 | -2.85 | -2.61 | -1.06 | 2.44 |
| Opa1 | DRSC07191 | 0.1 | 0.59 | -0.07 | 0.6 |
| Su(z)3 (retired record) | DRSC07558 | -4.36 | -3.18 | -4.64 | -5.51 |
| CG2200 | DRSC19840 | 0.01 | 0.15 | 0.55 | -0.03 |
| ems | DRSC16941 | 0.95 | -0.67 | 1.36 | 0.02 |
| CG32369 | DRSC10042 | -0.1 | -0.22 | 2.24 | -0.34 |
| CG32369 | DRSC10834 | -0.38 | -0.69 | 0.54 | -0.03 |
| CG31344 | DRSC16069 | 0.68 | -0.59 | 0.4 | -0.95 |
| LRR | DRSC06444 | 0.23 | 0.33 | -0.52 | 0.58 |
| Met | DRSC20284 | 0.19 | 0.13 | 0.78 | 0.49 |
| ImpL1 | DRSC11197 | 0.32 | -0.47 | 0.8 | -0.56 |
| CG31784 | DRSC01574 | -1.19 | -0.12 | -0.06 | 0.47 |
| CG8219 | DRSC10971 | 0.37 | -0.21 | – | -0.18 |
| BBS4 | DRSC06352 | 0.4 | 0.62 | 1.11 | 0.91 |
| CG14321 | DRSC14800 | -0.83 | 0.35 | -1.51 | -0.94 |
| dpr18 | DRSC19606 | -0.03 | -0.09 | -0.9 | -0.23 |
| CG13838 | DRSC14688 | 1.18 | -0.68 | 0.73 | -0.79 |
| Ir52c | DRSC21801 | -0.5 | 0.17 | -0.34 | 1.88 |
| CG5013 | DRSC15695 | -0.01 | 3.06 | 0.04 | 0.59 |
| CG31752 | DRSC22599 | 0.57 | 0.54 | -0.29 | 1.69 |
| CG13086 | DRSC02190 | -0.49 | -1.31 | -0.41 | -0.92 |
| CG34133 | DRSC16319 | -0.75 | -1.07 | 1.09 | 0.7 |
| CG34133 | DRSC22239 | 0.01 | -0.23 | -1.18 | -1.09 |
| puf | DRSC15875 | -1.31 | -1.04 | -0.09 | -0.16 |
| Phb2 | DRSC06512 | -3.65 | -1.42 | -2.06 | 2.18 |
| Vha44 | DRSC07572 | 1.36 | -0.28 | -1.36 | -0.19 |
| Vha44 | DRSC07573 | 0.46 | 0.4 | 1.12 | -0.23 |
| CG11248 | DRSC11644 | -0.19 | -0.26 | 0.16 | 0 |
| CG5139 | DRSC00681 | -0.18 | -0.66 | 0.45 | -0.09 |
| CG42254 (retired record) | DRSC06194 | 0.07 | 0.33 | -0.42 | -0.07 |
| Or65a | DRSC08808 | 0.4 | 0.54 | 1.87 | 0.47 |
| se | DRSC10713 | 0.26 | 0.41 | 0.6 | -0.6 |
| CG4582 | DRSC15605 | 0.05 | 0 | 0.02 | 0.16 |
| Cpn | DRSC16613 | 0 | -0.17 | -0.68 | 0.07 |
| anne | DRSC17103 | 1.3 | 3.58 | 3.03 | -2.66 |
| Cisd2 | DRSC14904 | 0.97 | -1.5 | -0.14 | -0.94 |
| meep | DRSC07948 | -0.65 | 0.6 | 1.45 | -0.28 |
| CG31551 | DRSC12159 | 0.44 | -0.28 | -0.1 | 0.67 |
| CG31551 | DRSC22403 | -0.13 | -3.65 | 1.65 | -0.61 |
| cad | DRSC03502 | -7.87 | -6.26 | -2.13 | -4.41 |
| CG11498 | DRSC14315 | 0.51 | -0.18 | -0.78 | -0.69 |
| Fis1 | DRSC07772 | 0.49 | -0.23 | 0.57 | -0.04 |
| ND-MNLL | DRSC18159 | -0.84 | -1.6 | -0.34 | 0.31 |
| VhaAC39-1 | DRSC18242 | 0.82 | 0.53 | 3.02 | 0.92 |
| CG7101 | DRSC20023 | 0.56 | 0.49 | -0.71 | -0.12 |
| CG7101 | DRSC22845 | -0.12 | -0.03 | -0.08 | 1.2 |
| CG34164 | DRSC02837 | -0.04 | 0.01 | -0.31 | 0.17 |
| SdhD | DRSC14215 | -0.87 | 0 | -0.23 | 0.2 |
| CG32055 | DRSC10666 | -0.03 | 0.11 | 0.92 | 0.02 |
| CG8641 | DRSC11028 | 0.5 | -0.56 | 0.26 | -0.48 |
| Jon66Cii | DRSC10778 | 0.29 | -0.29 | 0.43 | -0.27 |
| inaD | DRSC04694 | 0.36 | -0.02 | 0.84 | 0.47 |

Not a retest: an excerpt of the list.
| gene | amplicon | replicate 1, z-score of dpERK with insulin | replicate 2, z-score of dpERK with insulin | replicate 1, z-score of dpERK under basal conditions | replicate 1, z-score of ERK-YFP with insulin |
| --- | --- | --- | --- | --- | --- |
| CG11248 | DRSC11644 | -0.19 | -0.26 | 0.16 | 0 |
| CG5139 | DRSC00681 | -0.18 | -0.66 | 0.45 | -0.09 |
| CG42254 (retired record) | DRSC06194 | 0.07 | 0.33 | -0.42 | -0.07 |
| Or65a | DRSC08808 | 0.4 | 0.54 | 1.87 | 0.47 |
| se | DRSC10713 | 0.26 | 0.41 | 0.6 | -0.6 |
| CG4582 | DRSC15605 | 0.05 | 0 | 0.02 | 0.16 |
| Cpn | DRSC16613 | 0 | -0.17 | -0.68 | 0.07 |
| anne | DRSC17103 | 1.3 | 3.58 | 3.03 | -2.66 |
| Cisd2 | DRSC14904 | 0.97 | -1.5 | -0.14 | -0.94 |
